The list shows only some results of the screen, not a fair sample: it is rich in T/C values a quarter to a half above the control, in often repeated tests (any T/C) and in doses without a T/C. Other doses and runs of a compound stand elsewhere. T/C gives the treated animals as a percentage of the vehicle group. Some doses have a count of surviving animals in place of a T/C: the source holds a T/C of zero for them, seemingly a mark for toxic or unscored doses. Some survivor counts are full or nearly so, which does not show that the dose was tolerated: survival well below the control is almost never listed, so the zero probably covers shortened survival too. Counts of survivors are from the toxicity check (mostly the fifth day) where no day follows; animals may have died later. Schedules are NCI's codes, read here as Q, the interval in days (D) or hours (H), X, the number of doses. Some schedules carry Z or #; the key to these is not given. Some molecules as drawn cover several salts, stereoisomers or complexes of the source; a dose is that of the sample tested. Some entries hold several experiments; their values stand side by side, smallest first. Where survival is the endpoint, this PubChem deposit counts one and a half times the control or more as active, and values a quarter to a half above the control carry no call in these data; other NCI protocols may use other cut-offs. Brackets with × stand for listed records that agree. Some T/C values carry the count of animals alive at the toxicity check (mostly the fifth day); where none is given, no animal had died by that day.
System: BDF1 mice, L1210/MTX-resistant leukemia ip, survival T/C
Assay: NCI In Vivo Anticancer Drug Screen. Data for tumor model L1210 Leukemia resistant to Methotrexate; NSC 740 (intraperitoneal) in B6D2F1 (BDF1) mice
Conditions: T/C endpoint: mean survival time, higher T/C = longer survival
Protocol: The antitumor activity of compounds was measured in mice bearing transplantable tumors. Survival or tumor size were measured and the results are expressed as the measurement made in the treated group (T) divided by the measurement made in the vehicle treated control group (C). The tumor model used in this assay is L1210 Leukemia resistant to Methotrexate; NSC 740 (intraperitoneal) in B6D2F1 (BDF1) mice

[1] = dose: 0.25 mg/kg/injection, schedule: Q01DX Z (ip), vehicle: saline
[2] = dose: 0.5 mg/kg/injection, schedule: Q01DX Z (ip), vehicle: saline
[3] = dose: 1.0 mg/kg/injection, schedule: Q01DX Z (ip), vehicle: saline
[4] = dose: 50.0 mg/kg/injection, schedule: Q01DX Z (ip), vehicle: saline
[5] = dose: 10.0 mg/kg/injection, schedule: Q01DX Z (ip), vehicle: saline
[6] = dose: 20.0 mg/kg/injection, schedule: Q01DX Z (ip), vehicle: saline
[7] = dose: 50.0 mg/kg/injection, schedule: Q01DX010 (ip), vehicle: saline

SMILES: C1CN1c1nc(N2CC2)nc(N2CC2)n1
- T/C [1]: 132 and 140 % of control
- survivor count [1]: 6 of 6
- T/C [2]: 86, 88, 101 % of control
- survivor count [2]: 1 of 6 and 3 of 6
- T/C [3]: 102 and 103 % of control
- survivor count [3]: 0 of 6 and 6 of 6
- survivor count (dose: 63.0 micrograms/kg/injection, schedule: Q01DX Z (ip), vehicle: saline): 6 of 6
- T/C (dose: 125.0 micrograms/kg/injection, schedule: Q01DX Z (ip), vehicle: saline): 126 % of control
- T/C (dose: 250.0 micrograms/kg/injection, schedule: Q01DX Z (ip), vehicle: saline): 132 % of control [5 of 6 alive]

SMILES: O=P1(N(CCCl)CCCl)NCCCO1 (configuration not stated)
- T/C (dose: 22.5 mg/kg/injection, schedule: Q01DX010 (ip), vehicle: saline): 133 % of control
- T/C (dose: 22.5 mg/kg/injection, schedule: Q01DX Z (ip), vehicle: saline): 125 % of control
- T/C (dose: 25.0 mg/kg/injection, schedule: Q01DX Z (ip), vehicle: saline): 112, 117, 130 (2×), 144, 151, 186 % of control
- T/C (dose: 45.0 mg/kg/injection, schedule: Q01DX Z (ip), vehicle: saline): 129 and 131 % of control
- T/C [4]: 86, 113, 117 (2×), 130 (2×), 142, 171 % of control
- survivor count [4]: 6 of 6
- survivor count (dose: 90.0 mg/kg/injection, schedule: Q01DX Z (ip), vehicle: saline): 6 of 6
- survivor count (dose: 100.0 mg/kg/injection, schedule: Q01DX Z (ip), vehicle: saline): 6 of 6
- survivor count (dose: 180.0 mg/kg/injection, schedule: Q01DX010 (ip), vehicle: saline): 6 of 6
- survivor count (dose: 400.0 mg/kg/injection, schedule: Q01DX Z (ip), vehicle: saline): 6 of 6

SMILES: C[C@]12C=CC(=O)C=C1CC[C@@H]1[C@@H]2[C@@H](O)C[C@@]2(C)[C@H]1CC[C@]2(O)C(=O)CO
- survivor count (dose: 12.5 mg/kg/injection, schedule: Q01DX010 (sc), vehicle: steroid suspending solution): 6 of 6
- survivor count (dose: 25.0 mg/kg/injection, schedule: Q01DX010 (sc), vehicle: steroid suspending solution): 6 of 6
- survivor count (dose: 100.0 mg/kg/injection, schedule: Q01DX010 (sc), vehicle: steroid suspending solution): 6 of 6

SMILES: Clc1ncnc2nc[nH]c12
- survivor count (dose: 7.5 mg/kg/injection, schedule: Q01DX010 (ip), vehicle: saline): 6 of 6
- survivor count (dose: 60.0 mg/kg/injection, schedule: Q01DX010 (ip), vehicle: saline): 6 of 6

SMILES: C[C@@H]1C[C@H]2CC[C@H](O2)[C@H](C)C(=O)O[C@@H](C)C[C@@H]2CC[C@@H](O2)[C@@H](C)C(=O)O[C@H](C)C[C@H]2CC[C@H](O2)[C@H](C)C(=O)O[C@@H](C)C[C@@H]2CC[C@@H](O2)[C@@H](C)C(=O)O1
- survivor count (dose: 25.0 mg/kg/injection, schedule: Q01DX Z (ip), vehicle: methylcellulose (MC)): 5 of 6
- survivor count (dose: 50.0 mg/kg/injection, schedule: Q01DX Z (ip), vehicle: methylcellulose (MC)): 5 of 6
- survivor count (dose: 100.0 mg/kg/injection, schedule: Q01DX Z (ip), vehicle: methylcellulose (MC)): 4 of 6
- survivor count (dose: 200.0 mg/kg/injection, schedule: Q01DX Z (ip), vehicle: methylcellulose (MC)): 3 of 6

SMILES: N=[N+]=CC(=O)OCC(N)C(=O)O (configuration not stated)
- T/C (dose: 2.5 mg/kg/injection, schedule: Q01DX Z (ip), vehicle: saline): 135 % of control
- T/C (dose: 5.0 mg/kg/injection, schedule: Q01DX Z (ip), vehicle: saline): 131 % of control (2×)
- T/C [5]: 134 % of control
- T/C [6]: 106, 107, 121 % of control
- survivor count [6]: 4 of 6

SMILES: O=C(Nc1ccc(C2=NCCN2)cc1)c1ccc(C(=O)Nc2ccc(C3=NCCN3)cc2)c(Cl)c1
- T/C (dose: 2.0 mg/kg/injection, schedule: Q01DX010 (ip), vehicle: other): 140 % of control
- T/C (dose: 4.0 mg/kg/injection, schedule: Q01DX010 (ip), vehicle: other): 136 and 143 % of control
- T/C (dose: 8.0 mg/kg/injection, schedule: Q01DX010 (ip), vehicle: other): 134 % of control
- T/C [5]: 141 % of control [5 of 6 alive]
- T/C (dose: 13.0 mg/kg/injection, schedule: Q02DX010 (ip), vehicle: carboxymethylcellulose (CMC)): 138 % of control
- T/C [6]: 97, 131, 148, 153 % of control
- T/C (dose: 20.0 mg/kg/injection, schedule: Q02DX010 (ip), vehicle: carboxymethylcellulose (CMC)): 143 % of control
- T/C (dose: 40.0 mg/kg/injection, schedule: Q01DX Z (ip), vehicle: saline): 94, 108, 123, 161 % of control
- survivor count (dose: 160.0 mg/kg/injection, schedule: Q01DX Z (ip), vehicle: other): 6 of 6

SMILES: CNC=O
- T/C (dose: 75.0 mg/kg/injection, schedule: Q01DX Z (ip), vehicle: saline): 125 % of control
- T/C (dose: 150.0 mg/kg/injection, schedule: Q01DX Z (ip), vehicle: saline): 138 % of control
- survivor count (dose: 300.0 mg/kg/injection, schedule: Q01DX Z (ip), vehicle: saline): 2 of 6
- T/C (dose: 600.0 mg/kg/injection, schedule: Q01DX Z (ip), vehicle: saline): 126 % of control

SMILES: Nc1nc2c(c(=O)[nH]1)N=C(CNc1ccc(C(=O)NC(CCC(=O)O)C(=O)O)cc1)CN2 (configuration not stated)
- survivor count (dose: 1.0 mg/kg/injection, schedule: Q01DX009 (ip), vehicle: sodium bicarbonate): 6 of 6
- survivor count (dose: 2.0 mg/kg/injection, schedule: Q01DX009 (ip), vehicle: sodium bicarbonate): 6 of 6
- survivor count (dose: 4.0 mg/kg/injection, schedule: Q01DX009 (ip), vehicle: sodium bicarbonate): 6 of 6
- survivor count (dose: 8.0 mg/kg/injection, schedule: Q01DX009 (ip), vehicle: sodium bicarbonate): 6 of 6
- survivor count (dose: 16.0 mg/kg/injection, schedule: Q01DX009 (ip), vehicle: sodium bicarbonate): 6 of 6

SMILES: Nc1nc(F)nc2c1ncn2C1OC(CO)C(O)C1O (configuration not stated)
- T/C (dose: 0.18 mg/kg/injection, schedule: Q01DX Z (ip), vehicle: saline): 134 % of control
- T/C (dose: 0.37 mg/kg/injection, schedule: Q01DX Z (ip), vehicle: saline): 140 % of control
- T/C [2]: 130 % of control

SMILES: O=C(Nc1ccc(C2=NCCCN2)cc1)c1ccc(C(=O)Nc2ccc(C3=NCCCN3)cc2)cc1
- survivor count (dose: 16.0 mg/kg/injection, schedule: Q01DX010 (ip), vehicle: other): 5 of 6
- survivor count (dose: 50.0 mg/kg/injection, schedule: Q01DX Z (ip), vehicle: carboxymethylcellulose (CMC)): 0 of 6
- survivor count (dose: 75.0 mg/kg/injection, schedule: Q01DX Z (ip), vehicle: carboxymethylcellulose (CMC)): 0 of 6
- survivor count (dose: 100.0 mg/kg/injection, schedule: Q01DX Z (ip), vehicle: carboxymethylcellulose (CMC)): 0 of 6
- survivor count (dose: 187.0 mg/kg/injection, schedule: Q01DX Z (ip), vehicle: carboxymethylcellulose (CMC)): 0 of 6
- survivor count (dose: 250.0 mg/kg/injection, schedule: Q01DX Z (ip), vehicle: carboxymethylcellulose (CMC)): 0 of 6
- survivor count (dose: 375.0 mg/kg/injection, schedule: Q01DX Z (ip), vehicle: carboxymethylcellulose (CMC)): 0 of 6
- survivor count (dose: 500.0 mg/kg/injection, schedule: Q01DX Z (ip), vehicle: carboxymethylcellulose (CMC)): 0 of 6

SMILES: O[C@H](CN1CC1)[C@@H](O)CN1CC1
- T/C (dose: 0.04 mg/kg/injection, schedule: Q01DX Z (ip), vehicle: saline): 138 % of control
- T/C (dose: 0.08 mg/kg/injection, schedule: Q01DX Z (ip), vehicle: saline): 129 % of control
- T/C (dose: 0.12 mg/kg/injection, schedule: Q01DX Z (ip), vehicle: saline): 142 % of control
- T/C [1]: 134 % of control
- T/C [2]: 128 % of control [5 of 6 alive]

SMILES: O=NN(CCCl)C(=O)NCCCl
- T/C (dose: 12.5 mg/kg/injection, schedule: Q01DX010 (ip), vehicle: saline): 125 % of control
- survivor count [7]: 3 of 6 and 5 of 6

SMILES: CN(N=O)C(=O)NC(C=O)C(O)C(O)C(O)CO (configuration not stated)
- T/C (dose: 25.0 mg/kg/injection, schedule: Q01DX010 (ip), vehicle: saline): 127 % of control
- T/C [7]: 140 % of control
- survivor count (dose: 200.0 mg/kg/injection, schedule: Q01DX Z (ip), vehicle: saline): 6 of 6

From PubChem BioAssay AID284 (DTP/NCI, 2004)
